Experimental data: article PMC7596997

B1: cytosolic domain of yeast Tom70 (His-Tom70_(38–617)) [yeast (Saccharomyces cerevisiae)] / ADP/ATP carrier (AAC) of Neurospora crassa, wild type [modified: [35S]-methionine; [35S]-methionine] [Neurospora crassa] (parent)
chain 1: MAEQQKVLGMPPFVADFLMGGVSAAVSKTAAAPIERIKLLVQNQDEMIRAGRLDRRYNGIIDCFKRTTADEGVMALWRGNTANVIRYFPTQALNFAFRDKFKKMFGYKKDVDGYWKWMAGNLASGGAAGATSLLFVYSLDYARTRLANDAKSAKKGGERQFNGLVDVYRKTIASDGIAGLYRGFGPSVAGIVVYRGLYFGLYDSIKPVLLVGDLKNNFLASFALGWCVTTAAGIASYPLDTIRRRMMMTSGEAVKYKSSFDAASQIVAKEGVKSLFKGAGANILRGVAGAGVLSIYDQLQVLLFGKAFKGGSG
chain 2: RGKKNTINKDEKKDTKDSQKETEGAKKSTAPSNPPIYPVSSNGEPDFSNKANFTAEEKDKYALALKDKGNQFFRNKKYDDAIKYYNWALELKEDPVFYSNLSACYVSVGDLKKVVEMSTKALELKPDYSKVLLRRASANEGLGKFADAMFDLSVLSLNGDFNDASIEPMLERNLNKQAMSKLKEKFGDIDTATATPTELSTQPAKERKDKQENLPSVTSMASFFGIFKPELTFANYDESNEADKELMNGLSNLYKRSPESYDKADESFTKAARLFEEQLDKNNEDEKLKEKLAISLEHTGIFKFLKNDPLGAHEDIKKAIELFPRVNSYIYMALIMADRNDSTEYYNYFDKALKLDSNNSSVYYHRGQMNFILQNYDQAGKDFDKAKELDPENIFPYIQLACLAYRENKFDDCETLFSEAKRKFPEAPEVPNFFAEILTDKNDFDKALKQYDLAIELENKLDGIYVGIAPLVGKATLLTRNPTVENFIEATNLLEKASKLDPRSEQAKIGLAQMKLQQEDIDEAITLFEESADLARTMEEKLQAITFAEAAKVQQRIRSDPVLAKKIQETLAKLREQGLM

Variants of: B1
Assay: Ni-NTA bead binding assay with [35S]-labeled protein, phosphorimager quantification
Settings: Tom70cd C141A pretreated with 2 mM NEM, control = untreated C141A, n ≥ 6, read off a plot
For chain 2 C104A, the screen value was 100 % of control.

Same assay, conditions: no NEM, this bar is the normalisation control (100%) of the C141A pair, not a comparison with wild type, n ≥ 6, read off a plot
In the case of chain 2 C104A, the screen value is reported as 100 % of control.

Same assay, conditions: Tom70cd C439A pretreated with 2 mM NEM, control = untreated C439A, n ≥ 6, read off a plot
With chain 2 C402A the screen value was 63 % of control.

Same assay, conditions: no NEM, this bar is the normalisation control (100%) of the C439A pair, not a comparison with wild type, n ≥ 6, read off a plot
chain 2 C402A was tested, and the screen value was 100 % of control.

Same assay, conditions: Tom70cd C450A pretreated with 2 mM NEM, control = untreated C450A, n ≥ 6, read off a plot
With chain 2 C413A the screen value was 58 % of control.

Same assay, conditions: no NEM, this bar is the normalisation control (100%) of the C450A pair, not a comparison with wild type, n ≥ 6, read off a plot
For chain 2 C413A, the screen value was 100 % of control.
